These are literature values, as cited in patent US20200368322A1, “METHODS OF IDENTIFYING AND USING AGENTS FOR TREATING DISEASES ASSOCIATED WITH INTESTINAL BARRIER DYSFUNCTION” (Yeda Research and Development Co. Ltd., priority 2018, published 2020).

For the data set the following is noted: metabolite abundance, diseased vs healthy mice (Levy M. et al. Cell 2015); cited from earlier work.

In the case of `N[C@@H](CCO)C(=O)O` [L-homoserine], the diseased/healthy ratio is on record as 0.49.

On to `CC(=O)N1CCC[C@H]1C(=O)O` [N-acetylproline], for which the diseased/healthy ratio is recorded as 16.58.

`NCCc1c[nH]cn1` [histamine]: the diseased/healthy ratio is 44.18.

For the compound `NCCCCN` [putrescine], the diseased/healthy ratio is 145.2.

Turning to `NCCCNCCCCNCCCN` [spermine], the diseased/healthy ratio was 15.7.

Regarding `NCCc1c[nH]c2ccccc12` [tryptamine], the diseased/healthy ratio is reported as 0.08.
